Assay results published in the supplement of paper PMC12595434, “Development of retinoid nuclear receptor pathway antagonists through targeting aldehyde dehydrogenase 1A3” (iScience, 2025).
This is one part of the list. This is a noisy data set.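 Tm was set to 64 °C where no melting was found, and many curves are irregular.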

Protein sequences, listed by entry. Tags and fused reporters are not part of them. Lines headed by an entry give the natural chain unless they say otherwise; changes in a name come on top.
UniProt P58335, whole entry: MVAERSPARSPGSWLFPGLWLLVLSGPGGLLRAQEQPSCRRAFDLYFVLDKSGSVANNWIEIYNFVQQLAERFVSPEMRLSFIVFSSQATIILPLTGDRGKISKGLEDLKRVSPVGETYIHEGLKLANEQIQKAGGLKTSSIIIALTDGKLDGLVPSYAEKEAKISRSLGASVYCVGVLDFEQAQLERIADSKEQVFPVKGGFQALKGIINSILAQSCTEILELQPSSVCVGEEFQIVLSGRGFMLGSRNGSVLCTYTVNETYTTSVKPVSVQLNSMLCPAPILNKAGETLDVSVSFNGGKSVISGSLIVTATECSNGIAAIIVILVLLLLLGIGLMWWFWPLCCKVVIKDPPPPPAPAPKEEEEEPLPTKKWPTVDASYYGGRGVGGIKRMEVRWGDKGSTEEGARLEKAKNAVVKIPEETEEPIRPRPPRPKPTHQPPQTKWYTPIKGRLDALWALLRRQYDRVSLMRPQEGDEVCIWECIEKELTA
UniProt P61009: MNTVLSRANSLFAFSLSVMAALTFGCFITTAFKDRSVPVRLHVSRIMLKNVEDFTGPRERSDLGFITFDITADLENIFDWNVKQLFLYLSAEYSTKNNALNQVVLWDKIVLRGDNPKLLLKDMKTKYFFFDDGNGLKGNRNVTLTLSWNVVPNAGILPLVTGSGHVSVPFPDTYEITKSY
UniProt P52209: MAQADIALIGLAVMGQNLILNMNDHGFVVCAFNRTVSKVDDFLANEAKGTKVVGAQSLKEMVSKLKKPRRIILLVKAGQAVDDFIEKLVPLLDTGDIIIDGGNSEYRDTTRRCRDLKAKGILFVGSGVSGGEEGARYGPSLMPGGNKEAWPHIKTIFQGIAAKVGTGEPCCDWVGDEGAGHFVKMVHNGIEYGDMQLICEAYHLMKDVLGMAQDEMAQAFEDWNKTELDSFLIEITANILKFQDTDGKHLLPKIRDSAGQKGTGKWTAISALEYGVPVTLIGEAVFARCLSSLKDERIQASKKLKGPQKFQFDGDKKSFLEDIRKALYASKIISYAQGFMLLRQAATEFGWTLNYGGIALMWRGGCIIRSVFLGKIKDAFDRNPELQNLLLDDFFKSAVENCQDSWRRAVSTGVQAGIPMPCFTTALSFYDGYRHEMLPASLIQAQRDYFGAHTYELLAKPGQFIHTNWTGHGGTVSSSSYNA
UniProt P61956, whole entry: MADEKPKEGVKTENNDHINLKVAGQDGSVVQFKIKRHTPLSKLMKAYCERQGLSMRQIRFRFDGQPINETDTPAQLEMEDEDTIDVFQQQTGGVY
UniProt P53701: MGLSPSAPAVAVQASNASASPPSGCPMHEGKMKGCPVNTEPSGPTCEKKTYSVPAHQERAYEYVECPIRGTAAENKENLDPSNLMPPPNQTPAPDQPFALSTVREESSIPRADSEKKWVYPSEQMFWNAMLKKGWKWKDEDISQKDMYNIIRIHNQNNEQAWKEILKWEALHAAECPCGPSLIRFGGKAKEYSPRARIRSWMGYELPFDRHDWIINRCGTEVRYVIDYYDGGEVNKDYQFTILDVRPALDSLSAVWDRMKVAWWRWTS
UniProt P61081: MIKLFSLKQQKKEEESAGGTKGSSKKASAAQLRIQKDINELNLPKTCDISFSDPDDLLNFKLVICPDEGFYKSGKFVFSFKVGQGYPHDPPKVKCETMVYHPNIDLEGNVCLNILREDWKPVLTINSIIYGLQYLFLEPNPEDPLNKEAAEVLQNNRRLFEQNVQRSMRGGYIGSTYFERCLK
UniProt P51970, whole entry: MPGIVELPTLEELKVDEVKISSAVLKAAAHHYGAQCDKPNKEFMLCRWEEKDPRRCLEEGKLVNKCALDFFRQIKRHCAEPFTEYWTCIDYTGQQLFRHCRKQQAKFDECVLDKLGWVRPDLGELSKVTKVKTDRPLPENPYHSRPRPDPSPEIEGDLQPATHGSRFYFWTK
UniProt P62070: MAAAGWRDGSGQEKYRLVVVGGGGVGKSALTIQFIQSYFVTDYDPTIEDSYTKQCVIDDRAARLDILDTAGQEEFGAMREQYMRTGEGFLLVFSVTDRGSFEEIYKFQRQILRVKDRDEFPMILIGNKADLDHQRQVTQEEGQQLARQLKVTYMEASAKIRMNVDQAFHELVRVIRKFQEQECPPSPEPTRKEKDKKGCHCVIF
UniProt P54259: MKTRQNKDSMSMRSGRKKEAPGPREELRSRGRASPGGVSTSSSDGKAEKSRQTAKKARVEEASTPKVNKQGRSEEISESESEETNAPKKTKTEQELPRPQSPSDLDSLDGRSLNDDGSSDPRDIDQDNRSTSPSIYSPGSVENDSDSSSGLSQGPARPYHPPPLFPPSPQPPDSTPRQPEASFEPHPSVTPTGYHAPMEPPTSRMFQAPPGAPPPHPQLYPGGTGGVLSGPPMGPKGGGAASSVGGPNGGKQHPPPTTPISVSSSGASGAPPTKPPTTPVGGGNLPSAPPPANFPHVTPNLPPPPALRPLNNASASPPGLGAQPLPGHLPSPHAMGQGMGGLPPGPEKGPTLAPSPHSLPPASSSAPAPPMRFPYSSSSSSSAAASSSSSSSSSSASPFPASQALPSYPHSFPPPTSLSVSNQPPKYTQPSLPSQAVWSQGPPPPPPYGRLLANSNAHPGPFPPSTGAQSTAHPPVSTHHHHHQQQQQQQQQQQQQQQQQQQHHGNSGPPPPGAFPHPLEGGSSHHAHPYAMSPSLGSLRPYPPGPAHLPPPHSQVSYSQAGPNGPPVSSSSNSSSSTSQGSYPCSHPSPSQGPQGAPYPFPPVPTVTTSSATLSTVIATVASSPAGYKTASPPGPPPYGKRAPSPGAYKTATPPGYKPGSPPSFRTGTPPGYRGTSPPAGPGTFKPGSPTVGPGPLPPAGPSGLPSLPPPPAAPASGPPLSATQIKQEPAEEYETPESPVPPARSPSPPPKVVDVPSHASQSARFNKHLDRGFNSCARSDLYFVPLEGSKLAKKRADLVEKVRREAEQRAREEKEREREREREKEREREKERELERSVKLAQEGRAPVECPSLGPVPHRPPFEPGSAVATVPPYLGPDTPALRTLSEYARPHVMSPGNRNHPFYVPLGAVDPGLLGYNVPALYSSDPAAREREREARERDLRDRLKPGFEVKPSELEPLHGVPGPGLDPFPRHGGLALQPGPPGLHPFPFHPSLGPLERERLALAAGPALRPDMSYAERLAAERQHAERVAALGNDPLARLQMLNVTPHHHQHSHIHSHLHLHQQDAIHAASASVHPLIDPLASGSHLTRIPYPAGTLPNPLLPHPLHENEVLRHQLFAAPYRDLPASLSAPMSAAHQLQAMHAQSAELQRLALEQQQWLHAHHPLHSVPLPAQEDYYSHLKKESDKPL
UniProt P68371, whole entry: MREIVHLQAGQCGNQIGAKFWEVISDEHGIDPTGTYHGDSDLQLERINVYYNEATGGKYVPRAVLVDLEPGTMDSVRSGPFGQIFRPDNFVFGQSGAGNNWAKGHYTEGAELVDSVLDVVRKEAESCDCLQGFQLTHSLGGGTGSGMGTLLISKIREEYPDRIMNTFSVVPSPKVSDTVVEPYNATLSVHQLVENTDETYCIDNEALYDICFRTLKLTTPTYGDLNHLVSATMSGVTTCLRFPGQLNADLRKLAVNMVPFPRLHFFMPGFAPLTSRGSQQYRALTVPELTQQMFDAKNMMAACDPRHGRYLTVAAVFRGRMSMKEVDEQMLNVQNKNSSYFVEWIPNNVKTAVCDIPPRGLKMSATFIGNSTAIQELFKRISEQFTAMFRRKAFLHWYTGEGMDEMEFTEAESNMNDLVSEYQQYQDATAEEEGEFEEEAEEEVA
UniProt P61769, whole entry: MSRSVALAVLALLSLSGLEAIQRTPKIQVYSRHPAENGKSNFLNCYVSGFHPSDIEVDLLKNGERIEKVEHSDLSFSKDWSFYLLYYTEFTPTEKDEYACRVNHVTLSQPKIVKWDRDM
UniProt P67870, whole entry: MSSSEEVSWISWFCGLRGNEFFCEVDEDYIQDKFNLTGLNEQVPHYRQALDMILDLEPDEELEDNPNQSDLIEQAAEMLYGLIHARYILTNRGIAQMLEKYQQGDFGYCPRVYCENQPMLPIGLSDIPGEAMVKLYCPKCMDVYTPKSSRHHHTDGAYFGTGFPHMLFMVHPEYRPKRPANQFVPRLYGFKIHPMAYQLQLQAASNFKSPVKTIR
UniProt P51948: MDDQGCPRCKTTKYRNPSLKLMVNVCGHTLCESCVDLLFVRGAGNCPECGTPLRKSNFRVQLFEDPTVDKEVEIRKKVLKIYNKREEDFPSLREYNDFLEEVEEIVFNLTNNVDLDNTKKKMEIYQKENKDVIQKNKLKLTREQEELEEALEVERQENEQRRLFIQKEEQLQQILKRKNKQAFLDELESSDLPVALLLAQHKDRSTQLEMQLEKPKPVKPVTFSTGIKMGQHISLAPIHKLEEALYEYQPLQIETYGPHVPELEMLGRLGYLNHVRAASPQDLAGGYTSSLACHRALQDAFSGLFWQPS
UniProt P67775, whole entry: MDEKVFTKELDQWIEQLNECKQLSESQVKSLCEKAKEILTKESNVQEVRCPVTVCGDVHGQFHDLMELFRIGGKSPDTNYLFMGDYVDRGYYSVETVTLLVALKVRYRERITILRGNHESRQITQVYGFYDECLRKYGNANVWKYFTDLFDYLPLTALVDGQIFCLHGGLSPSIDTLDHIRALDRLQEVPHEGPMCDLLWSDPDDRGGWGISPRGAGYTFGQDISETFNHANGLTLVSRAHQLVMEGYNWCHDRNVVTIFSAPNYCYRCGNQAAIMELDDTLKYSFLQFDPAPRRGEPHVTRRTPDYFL
UniProt P51812, whole entry: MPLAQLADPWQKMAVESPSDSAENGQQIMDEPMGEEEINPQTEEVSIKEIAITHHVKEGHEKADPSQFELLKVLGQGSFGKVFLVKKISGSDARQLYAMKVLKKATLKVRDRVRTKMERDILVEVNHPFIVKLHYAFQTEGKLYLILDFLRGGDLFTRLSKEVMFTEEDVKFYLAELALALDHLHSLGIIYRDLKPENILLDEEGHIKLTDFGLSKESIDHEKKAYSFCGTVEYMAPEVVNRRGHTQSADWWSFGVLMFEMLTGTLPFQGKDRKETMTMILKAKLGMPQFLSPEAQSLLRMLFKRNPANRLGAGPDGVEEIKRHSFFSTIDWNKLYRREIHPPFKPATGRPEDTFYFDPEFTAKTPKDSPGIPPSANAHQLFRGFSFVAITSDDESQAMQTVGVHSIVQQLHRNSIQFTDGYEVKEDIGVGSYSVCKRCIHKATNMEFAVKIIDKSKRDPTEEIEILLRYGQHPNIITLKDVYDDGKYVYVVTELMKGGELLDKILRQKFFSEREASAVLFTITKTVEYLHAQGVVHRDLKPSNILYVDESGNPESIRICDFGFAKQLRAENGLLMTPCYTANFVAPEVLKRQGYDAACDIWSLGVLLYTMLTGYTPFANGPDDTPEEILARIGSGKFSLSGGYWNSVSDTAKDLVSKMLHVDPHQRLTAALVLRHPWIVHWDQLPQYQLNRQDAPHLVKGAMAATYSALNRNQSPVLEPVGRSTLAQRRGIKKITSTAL
UniProt P63279, whole entry: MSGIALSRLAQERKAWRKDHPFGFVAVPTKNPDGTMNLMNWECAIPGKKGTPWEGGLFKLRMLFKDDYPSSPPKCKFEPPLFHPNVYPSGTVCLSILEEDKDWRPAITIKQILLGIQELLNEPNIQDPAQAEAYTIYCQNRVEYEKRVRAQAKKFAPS
UniProt P63241: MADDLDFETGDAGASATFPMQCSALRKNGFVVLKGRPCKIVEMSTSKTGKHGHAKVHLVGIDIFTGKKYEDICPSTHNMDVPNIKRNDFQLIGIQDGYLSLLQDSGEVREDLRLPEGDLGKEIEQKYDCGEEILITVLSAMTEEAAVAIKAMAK
UniProt P52565: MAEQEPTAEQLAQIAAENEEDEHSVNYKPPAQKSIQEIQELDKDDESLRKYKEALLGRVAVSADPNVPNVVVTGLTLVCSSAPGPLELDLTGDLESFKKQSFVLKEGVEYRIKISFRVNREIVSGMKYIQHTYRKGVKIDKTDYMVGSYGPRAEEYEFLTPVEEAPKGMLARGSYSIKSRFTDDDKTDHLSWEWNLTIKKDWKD
UniProt P53597: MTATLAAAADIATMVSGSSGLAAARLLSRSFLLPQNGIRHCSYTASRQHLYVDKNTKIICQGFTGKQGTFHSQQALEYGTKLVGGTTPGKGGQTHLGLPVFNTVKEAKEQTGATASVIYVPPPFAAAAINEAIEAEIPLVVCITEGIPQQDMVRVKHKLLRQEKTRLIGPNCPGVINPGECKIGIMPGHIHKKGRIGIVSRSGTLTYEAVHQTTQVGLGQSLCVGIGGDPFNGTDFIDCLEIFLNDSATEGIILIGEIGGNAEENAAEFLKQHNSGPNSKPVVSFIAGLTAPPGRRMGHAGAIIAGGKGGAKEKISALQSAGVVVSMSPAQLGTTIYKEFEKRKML
UniProt P52564: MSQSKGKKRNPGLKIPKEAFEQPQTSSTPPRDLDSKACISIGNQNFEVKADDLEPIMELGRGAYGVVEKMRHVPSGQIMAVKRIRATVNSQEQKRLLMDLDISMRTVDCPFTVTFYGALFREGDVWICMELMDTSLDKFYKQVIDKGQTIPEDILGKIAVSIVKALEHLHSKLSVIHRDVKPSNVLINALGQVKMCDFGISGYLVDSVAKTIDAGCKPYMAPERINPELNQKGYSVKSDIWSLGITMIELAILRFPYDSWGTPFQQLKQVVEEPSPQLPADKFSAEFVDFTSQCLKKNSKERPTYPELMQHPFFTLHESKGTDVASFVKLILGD

Compound: CCc1cnccc1C(=O)Nc1cc2c(cc1F)NC(=O)CC2
Assay: melting temperature shift (DMSO Tm minus MBE1-treated Tm) in cellular thermal proteome profiling; higher = less thermal stabilization by MBE1 (negative = stabilized by MBE1)
Conditions: A375

RPL11 (UniProt P62913) gave a melting temperature shift (MBE1 concentration: 100 nM) of -1.46 °C and a melting temperature shift (MBE1 concentration: 1 uM) of -0.551 °C.

With UniProt P58335 the melting temperature shift (MBE1 concentration: 100 nM) was -2.33 °C and the melting temperature shift (MBE1 concentration: 1 uM) was -0.055 °C.

With UniProt P56282 the melting temperature shift (MBE1 concentration: 100 nM) was -0.448 °C and the melting temperature shift (MBE1 concentration: 1 uM) was -0.0128 °C.

UBE2K (UniProt P61086) gave a melting temperature shift (MBE1 concentration: 100 nM) of -0.282 °C and a melting temperature shift (MBE1 concentration: 1 uM) of -0.617 °C.

SPCS3 (UniProt P61009) was tested, and the melting temperature shift (MBE1 concentration: 100 nM) was -0.543 °C and the melting temperature shift (MBE1 concentration: 1 uM) was 0.154 °C.

Target RPL7A (UniProt P62424) has a melting temperature shift (MBE1 concentration: 100 nM) of -1.13 °C and a melting temperature shift (MBE1 concentration: 1 uM) of -0.867 °C.

Target PGD (UniProt P52209) has a melting temperature shift (MBE1 concentration: 100 nM) of -0.201 °C and a melting temperature shift (MBE1 concentration: 1 uM) of 0.0805 °C.

In the case of UniProt P52848, the melting temperature shift (MBE1 concentration: 100 nM) is reported as -1.48 °C and the melting temperature shift (MBE1 concentration: 1 uM) is reported as 0.446 °C.

SUB1 (UniProt P53999) showed a melting temperature shift (MBE1 concentration: 100 nM) of -0.379 °C and a melting temperature shift (MBE1 concentration: 1 uM) of -0.214 °C.

SUMO2 (UniProt P61956) gave a melting temperature shift (MBE1 concentration: 100 nM) of 1.38 °C and a melting temperature shift (MBE1 concentration: 1 uM) of 2.17 °C.

Work on HCCS (UniProt P53701) yielded a melting temperature shift (MBE1 concentration: 100 nM) of -0.208 °C and a melting temperature shift (MBE1 concentration: 1 uM) of 0.757 °C.

In the case of RPL8 (UniProt P62917), the melting temperature shift (MBE1 concentration: 100 nM) is reported as -1.04 °C and the melting temperature shift (MBE1 concentration: 1 uM) is reported as 0.708 °C.

ETF1 (UniProt P62495) was tested, and the melting temperature shift (MBE1 concentration: 100 nM) was -0.266 °C and the melting temperature shift (MBE1 concentration: 1 uM) was 0.299 °C.

With ACTG1 (UniProt P63261) the melting temperature shift (MBE1 concentration: 100 nM) was -2.46 °C and the melting temperature shift (MBE1 concentration: 1 uM) was 0.0733 °C.

In the case of RPL38 (UniProt P63173), the melting temperature shift (MBE1 concentration: 100 nM) is reported as -1.57 °C and the melting temperature shift (MBE1 concentration: 1 uM) is reported as 2.38 °C.

In the case of UniProt P62760, the melting temperature shift (MBE1 concentration: 100 nM) is reported as -1.09 °C and the melting temperature shift (MBE1 concentration: 1 uM) is reported as -0.428 °C.

Work on UBE2M (UniProt P61081) yielded a melting temperature shift (MBE1 concentration: 100 nM) of -0.171 °C and a melting temperature shift (MBE1 concentration: 1 uM) of -1.06 °C.

Target UniProt P52895 has a melting temperature shift (MBE1 concentration: 100 nM) of -0.904 °C and a melting temperature shift (MBE1 concentration: 1 uM) of 0.0961 °C.

In the case of CASP6 (UniProt P55212), the melting temperature shift (MBE1 concentration: 100 nM) is reported as 0.576 °C and the melting temperature shift (MBE1 concentration: 1 uM) is reported as 3.11 °C.

AP2S1 (UniProt P53680) was tested, and the melting temperature shift (MBE1 concentration: 100 nM) was 0.25 °C and the melting temperature shift (MBE1 concentration: 1 uM) was 0.427 °C.

For POLR2G (UniProt P62487), the melting temperature shift (MBE1 concentration: 100 nM) was -1.45 °C and the melting temperature shift (MBE1 concentration: 1 uM) was -1.46 °C.

In the case of UniProt P62308, the melting temperature shift (MBE1 concentration: 100 nM) is reported as -1.81 °C and the melting temperature shift (MBE1 concentration: 1 uM) is reported as 0.914 °C.

Work on NDUFA8 (UniProt P51970) yielded a melting temperature shift (MBE1 concentration: 100 nM) of -1.58 °C and a melting temperature shift (MBE1 concentration: 1 uM) of -0.563 °C.

With HIST1H4A (UniProt P62805) the melting temperature shift (MBE1 concentration: 100 nM) was 1.97 °C and the melting temperature shift (MBE1 concentration: 1 uM) was 2.28 °C.

SLC12A2 (UniProt P55011) gave a melting temperature shift (MBE1 concentration: 100 nM) of -0.711 °C and a melting temperature shift (MBE1 concentration: 1 uM) of -0.181 °C.

With RRAS2 (UniProt P62070) the melting temperature shift (MBE1 concentration: 100 nM) was -2.06 °C and the melting temperature shift (MBE1 concentration: 1 uM) was 1.03 °C.

ABCE1 (UniProt P61221) was tested, and the melting temperature shift (MBE1 concentration: 100 nM) was -1.62 °C and the melting temperature shift (MBE1 concentration: 1 uM) was -0.983 °C.

ATN1 (UniProt P54259) gave a melting temperature shift (MBE1 concentration: 100 nM) of -8.17 °C and a melting temperature shift (MBE1 concentration: 1 uM) of 0.892 °C.

RPS13 (UniProt P62277) was tested, and the melting temperature shift (MBE1 concentration: 100 nM) was 0.794 °C and the melting temperature shift (MBE1 concentration: 1 uM) was -0.281 °C.

UniProt P68371 was tested, and the melting temperature shift (MBE1 concentration: 100 nM) was -0.856 °C and the melting temperature shift (MBE1 concentration: 1 uM) was 0.965 °C.

Work on CTBP2 (UniProt P56545) yielded a melting temperature shift (MBE1 concentration: 100 nM) of 0.0604 °C and a melting temperature shift (MBE1 concentration: 1 uM) of 0.456 °C.

With RPS16 (UniProt P62249) the melting temperature shift (MBE1 concentration: 100 nM) was -0.562 °C and the melting temperature shift (MBE1 concentration: 1 uM) was 0.742 °C.

B2M (UniProt P61769) was tested, and the melting temperature shift (MBE1 concentration: 100 nM) was -5.39 °C and the melting temperature shift (MBE1 concentration: 1 uM) was -6.34 °C.

In the case of ADK (UniProt P55263), the melting temperature shift (MBE1 concentration: 100 nM) is reported as -0.953 °C and the melting temperature shift (MBE1 concentration: 1 uM) is reported as -0.372 °C.

In the case of CSNK2B (UniProt P67870), the melting temperature shift (MBE1 concentration: 100 nM) is reported as -2.15 °C and the melting temperature shift (MBE1 concentration: 1 uM) is reported as -0.871 °C.

MNAT1 (UniProt P51948) was tested, and the melting temperature shift (MBE1 concentration: 100 nM) was -0.933 °C and the melting temperature shift (MBE1 concentration: 1 uM) was 0.684 °C.

For RPS26 (UniProt P62854), the melting temperature shift (MBE1 concentration: 100 nM) was 0.0591 °C and the melting temperature shift (MBE1 concentration: 1 uM) was -0.316 °C.

In the case of UniProt P62491, the melting temperature shift (MBE1 concentration: 100 nM) is reported as -1.84 °C and the melting temperature shift (MBE1 concentration: 1 uM) is reported as -0.65 °C.

PPP2CA (UniProt P67775) was tested, and the melting temperature shift (MBE1 concentration: 100 nM) was -0.335 °C and the melting temperature shift (MBE1 concentration: 1 uM) was -0.235 °C.

With UniProt P54132 the melting temperature shift (MBE1 concentration: 100 nM) was -2.55 °C and the melting temperature shift (MBE1 concentration: 1 uM) was 2.57 °C.

RPS6KA3 (UniProt P51812) showed a melting temperature shift (MBE1 concentration: 100 nM) of 0.189 °C and a melting temperature shift (MBE1 concentration: 1 uM) of -0.263 °C.

Target UBE2I (UniProt P63279) has a melting temperature shift (MBE1 concentration: 100 nM) of -0.299 °C and a melting temperature shift (MBE1 concentration: 1 uM) of -0.055 °C.

With EIF5A (UniProt P63241) the melting temperature shift (MBE1 concentration: 100 nM) was -0.22 °C and the melting temperature shift (MBE1 concentration: 1 uM) was -0.635 °C.

ARHGDIA (UniProt P52565) showed a melting temperature shift (MBE1 concentration: 100 nM) of -0.168 °C and a melting temperature shift (MBE1 concentration: 1 uM) of -0.259 °C.

RPL15 (UniProt P61313) gave a melting temperature shift (MBE1 concentration: 100 nM) of -0.788 °C and a melting temperature shift (MBE1 concentration: 1 uM) of -0.305 °C.

For GSDMD (UniProt P57764), the melting temperature shift (MBE1 concentration: 100 nM) was -1.49 °C and the melting temperature shift (MBE1 concentration: 1 uM) was -1.66 °C.

With UBE2E1 (UniProt P51965) the melting temperature shift (MBE1 concentration: 100 nM) was -1.14 °C and the melting temperature shift (MBE1 concentration: 1 uM) was 8.94 °C.

With SUCLG1 (UniProt P53597) the melting temperature shift (MBE1 concentration: 100 nM) was 0.302 °C and the melting temperature shift (MBE1 concentration: 1 uM) was 0.793 °C.

MAP2K6 (UniProt P52564) showed a melting temperature shift (MBE1 concentration: 100 nM) of -0.281 °C and a melting temperature shift (MBE1 concentration: 1 uM) of 0.409 °C.
